“Also recorded” adds a separate entry of the source. Not every detail of the peptide structures is certain; ends, links or a residue may be inferred. *1 amine or outer side, *2 acyl side, *3 side chain or, on linkers, in order; H or OH if unused. Where a SMILES comes first, the peptide text is derived from it. Side-chain parts run from the residue outwards. [ ]: non-standard residue; d: D form. The star is where a group is joined. C18 diacid = O=C(O)CCCCCCCCCCCCCCCCC(=O)*; γGlu = O=C(O)[C@H](CCC(=O)[*:2])N[*:1]; Glutaryl = O=C(CCCC(=O)[*:2])[*:1]; Nle = CCCC[C@H](N)C(=O)O; AEEA = NCCOCCOCC(=O)O; Aib = CC(C)(N)C(=O)O
Test system: High fat diet (HFD) induced obese cynomolgus monkeys
Assay: cynomolgus monkey efficacy study, 42 days daily SC treatment
Format: in vivo, cynomolgus monkeys (Macaca fascicularis)

## CCCC[C@H](NC(=O)C(C)(C)NC(=O)[C@@H](NC(=O)[C@H](CO)NC(=O)[C@H](Cc1ccc(O)cc1)NC(=O)[C@H](CCC(=O)O)NC(=O)[C@H](CO)NC(=O)[C@@H](NC(=O)[C@H](Cc1ccccc1)NC(=O)[C@@H](NC(=O)CNC(=O)CCCC(=O)O)[C@@H](C)O)[C@@H](C)CC)[C@@H](C)CC)C(=O)N[C@@H](CCC(=O)O)C(=O)N[C@@H](CCCCN)C(=O)N[C@H](C(=O)N[C@@H](CCCCNC(=O)COCCOCCNC(=O)COCCOCCNC(=O)CC[C@H](NC(=O)CCCCCCCCCCCCCCCCC(=O)O)C(=O)O)C(=O)N[C@@H](CCC(N)=O)C(=O)N[C@@H](CCC(N)=O)C(=O)N[C@@H](CCC(=O)O)C(=O)N[C@@H](Cc1ccccc1)C(=O)N[C@H](C(=O)N[C@@H](CCC(=O)O)C(=O)N[C@@H](Cc1c[nH]c2ccccc12)C(=O)N[C@@H](CC(C)C)C(=O)N[C@@H](CC(C)C)C(=O)N[C@@H](C)C(=O)N[C@@H](CCC(N)=O)C(=O)N[C@@H](CCCCN)C(=O)N1CCC[C@H]1C(=O)N[C@@H](CO)C(=O)N[C@@H](CO)C(=O)NCC(=O)N[C@@H](C)C(=O)N1CCC[C@H]1C(=O)N1CCC[C@H]1C(=O)N1CCC[C@H]1C(=O)N[C@@H](CO)C(=O)O)C(C)C)[C@@H](C)CC [Compound 2] (Glutaryl-GTFISEYSI[Aib][Nle]EKIK([AEEA-AEEA-γGlu-C18 diacid])QQEFVEWLLAQKPSSGAPPPS-OH)
42 days treatment, placebo gained 9%
  body weight during the study period (in words): maintained body weight; also recorded: no change in weight
At day 43, FIG. 1C, placebo 25.1
  average HOMA-IR (Homeostatic Model Assessment for Insulin Resistance): 12.7
